Article PMC5823973
Results are given in words; binding and its absence hold for the method and conditions named. Binding seen in cells or lysates may run through a third protein. Some binding calls cover weakened binding; strength is not graded here.

Protein sequences, listed by entry. Tags and fused reporters are not part of them.
UniProt P04406: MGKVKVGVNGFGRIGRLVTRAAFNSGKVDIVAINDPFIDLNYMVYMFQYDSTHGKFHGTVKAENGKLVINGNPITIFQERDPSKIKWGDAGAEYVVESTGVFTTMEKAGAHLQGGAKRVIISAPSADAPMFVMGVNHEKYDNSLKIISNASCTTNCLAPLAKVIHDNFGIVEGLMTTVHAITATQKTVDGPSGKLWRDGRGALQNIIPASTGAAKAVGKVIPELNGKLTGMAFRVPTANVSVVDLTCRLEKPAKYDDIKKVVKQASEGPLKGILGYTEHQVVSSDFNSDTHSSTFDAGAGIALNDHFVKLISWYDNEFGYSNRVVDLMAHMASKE

Molecular target: GAPDH (human (endogenous in 143B cybrid cells)) (UniProt P04406)
Experiment: co-IP; anti-GAPDH antibody coupled to Dynabeads M-270 Epoxy, incubated with 3 mg lysate of mT7, mT45 or mT80 cells for 30 minutes at 4°C; lysis buffer 140 mM NaCl, 5 mM EDTA, 1% Triton X-100, 20 mM Tris pH 7.4; three washes; western blot; IgG isotype control

- binding: binds
B1: malate dehydrogenase 1 (MDH1) (enzyme, UniProt P40925 1-334)
chain: MSEPIRVLVTGAAGQIAYSLLYSIGNGSVFGKDQPIILVLLDITPMMGVLDGVLMELQDCALPLLKDVIATDKEDVAFKDLDVAILVGSMPRREGMERKDLLKANVKIFKSQGAALDKYAKKSVKVIVVGNPANTNCLTASKSAPSIPKENFSCLTRLDHNRAKAQIALKLGVTANDVKNVIIWGNHSSTQYPDVNHAKVKLQGKEVGVYEALKDDSWLKGEFVTTVQQRGAAVIKARKLSSAMSAAKAICDHVRDIWFGTPEGEFVSMGVISDGNSYGVPDDLLYSFPVVIKNKTWKFVEGLPINDFSREKMDLTAKELTEEKESAFEFLSSA
